Assay results from patent publication US20230031853A1, “COMPOSITIONS AND METHODS FOR THE CYTOPLASMIC DELIVERY OF ANTIBODIES AND OTHER PROTEINS” (THE TRUSTEES OF THE UNIVERSITY OF PENNSYLVANIA, priority 2018, published 2023).
For at least one compound, name, drawing or mass did not settle the structure.

Tested on: KRas-G12C signaling
Assay: western blotting for phosphorylated ERK in hEGF-stimulated A549 cells
Type: cell-based, human
Settings: 100 nM treatment, 100 ng/mL hEGF 30 min

Structure (SMILES): CC(=O)Nc1cccc(-n2c(=O)n(C3CC3)c(=O)c3c(Nc4ccc(I)cc4F)n(C)c(=O)c(C)c32)c1 [Trametinib]
- ERK phosphorylation: abolished ERK phosphorylation
